Reference: article doi:10.1101/2020.02.18.953711 (bioRxiv, 2020)
Results are given in words; binding and its absence hold for the method and conditions named. In cells and extracts the contact can be indirect. Some entries that bind do so weakly or less than the wild type. Tags and fused reporters may be left off the sequences shown.

Tests used:
[1] = target: T1, CEPR2-nLUC (Arabidopsis thaliana) (UniProt Q9C7T7); test: split reporter
T1 sequence: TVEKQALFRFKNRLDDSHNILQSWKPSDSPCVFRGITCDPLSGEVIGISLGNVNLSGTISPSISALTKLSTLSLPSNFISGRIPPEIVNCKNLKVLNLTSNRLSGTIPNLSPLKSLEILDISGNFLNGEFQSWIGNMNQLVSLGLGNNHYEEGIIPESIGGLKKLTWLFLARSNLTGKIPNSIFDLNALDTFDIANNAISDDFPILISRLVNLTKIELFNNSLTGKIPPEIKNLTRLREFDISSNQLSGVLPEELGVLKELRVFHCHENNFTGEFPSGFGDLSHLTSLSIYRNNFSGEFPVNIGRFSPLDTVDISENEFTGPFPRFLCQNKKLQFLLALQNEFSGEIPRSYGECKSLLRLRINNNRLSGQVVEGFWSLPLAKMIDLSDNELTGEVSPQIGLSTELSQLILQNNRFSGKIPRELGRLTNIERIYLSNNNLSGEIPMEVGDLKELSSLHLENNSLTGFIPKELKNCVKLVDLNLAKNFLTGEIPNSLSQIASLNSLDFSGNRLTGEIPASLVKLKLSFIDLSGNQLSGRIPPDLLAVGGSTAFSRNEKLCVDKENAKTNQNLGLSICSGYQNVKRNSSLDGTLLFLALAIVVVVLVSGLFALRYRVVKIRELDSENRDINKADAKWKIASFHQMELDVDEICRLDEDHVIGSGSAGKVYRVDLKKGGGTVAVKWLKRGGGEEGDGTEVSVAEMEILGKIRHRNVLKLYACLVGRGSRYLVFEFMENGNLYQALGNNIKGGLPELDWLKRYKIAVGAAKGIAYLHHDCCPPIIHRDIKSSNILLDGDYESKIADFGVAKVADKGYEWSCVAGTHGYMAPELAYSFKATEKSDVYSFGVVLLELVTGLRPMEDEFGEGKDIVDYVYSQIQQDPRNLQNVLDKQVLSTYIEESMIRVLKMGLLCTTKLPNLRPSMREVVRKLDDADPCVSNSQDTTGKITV

[2] = target: T2, CEPR2-YFP^N (Arabidopsis thaliana) (UniProt Q9C7T7); test: split reporter
T2 sequence: T1 sequence

B1: NRT1.2-cLUC (protein, UniProt Q8H157 1-585)
chain: MEVEEEVSRWEGYADWRNRAAVKGRHGGMLAASFVLVVEILENLAYLANASNLVLYLREYMHMSPSKSANDVTNFMGTAFLLALLGGFLSDAFFSTFQIFLISASIEFLGLIILTIQARTPSLMPPSCDSPTCEEVSGSKAAMLFVGLYLVALGVGGIKGSLASHGAEQFDESTPKGRKQRSTFFNYFVFCLACGALVAVTFVVWLEDNKGWEWGFGVSTIAIFVSILIFLSGSRFYRNKIPCGSPLTTILKVLLAASVKCCSSGSSSNAVASMSVSPSNHCVSKGKKEVESQGELEKPRQEEALPPRAQLTNSLKVLNGAADEKPVHRLLECTVQQVEDVKIVLKMLPIFACTIMLNCCLAQLSTFSVQQAASMNTKIGSLKIPPASLPIFPVVFIMILAPIYDHLIIPFARKATKTETGVTHLQRIGVGLVLSILAMAVAALVEIKRKGVAKDSGLLDSKETLPVTFLWIALQYLFLGSADLFTLAGLLEYFFTEAPSSMRSLATSLSWASLAMGYYLSSVIVSIVNSITGSSGNTPWLRGKSINRYKLDYFYWLMCVLSAANFLHYLFWAMRYKYRSTGSRS
[1]
  binding: binds

B2: NRT1.2-YFP^C (protein, UniProt Q8H157 1-585)
chain: B1 chain
[2]
  binding: binds
